Results from paper PMC10813977.
Results are given in words; binding and its absence hold for the method and conditions named. Binding seen in cells or lysates may run through a third protein. Some entries that bind do so weakly or less than the wild type.

By UniProt entry, the sequences of proteins in these tests, tags left out.
UniProt P42224: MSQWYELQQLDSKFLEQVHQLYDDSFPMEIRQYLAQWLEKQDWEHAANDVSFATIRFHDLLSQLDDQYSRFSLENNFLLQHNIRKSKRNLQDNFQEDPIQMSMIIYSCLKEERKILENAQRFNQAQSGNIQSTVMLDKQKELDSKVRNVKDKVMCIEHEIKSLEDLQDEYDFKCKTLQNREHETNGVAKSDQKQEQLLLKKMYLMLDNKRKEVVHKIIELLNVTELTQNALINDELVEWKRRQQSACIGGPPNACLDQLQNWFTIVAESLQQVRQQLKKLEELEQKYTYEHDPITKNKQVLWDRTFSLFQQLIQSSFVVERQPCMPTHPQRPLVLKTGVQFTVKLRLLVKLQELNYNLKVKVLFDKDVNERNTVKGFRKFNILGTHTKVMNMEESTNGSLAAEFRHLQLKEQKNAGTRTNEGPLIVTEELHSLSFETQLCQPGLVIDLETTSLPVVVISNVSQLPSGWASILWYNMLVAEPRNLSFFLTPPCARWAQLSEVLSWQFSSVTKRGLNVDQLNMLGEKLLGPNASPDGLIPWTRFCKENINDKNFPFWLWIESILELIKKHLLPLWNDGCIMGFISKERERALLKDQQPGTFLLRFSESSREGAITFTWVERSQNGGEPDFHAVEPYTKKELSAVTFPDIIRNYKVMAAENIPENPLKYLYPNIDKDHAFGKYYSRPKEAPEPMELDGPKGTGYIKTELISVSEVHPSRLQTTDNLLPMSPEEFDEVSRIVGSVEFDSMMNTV

T1: tryptophanyl-tRNA synthetase (WARS), endogenous (human (endogenous in A375)) (UniProt P23381)
T1 sequence: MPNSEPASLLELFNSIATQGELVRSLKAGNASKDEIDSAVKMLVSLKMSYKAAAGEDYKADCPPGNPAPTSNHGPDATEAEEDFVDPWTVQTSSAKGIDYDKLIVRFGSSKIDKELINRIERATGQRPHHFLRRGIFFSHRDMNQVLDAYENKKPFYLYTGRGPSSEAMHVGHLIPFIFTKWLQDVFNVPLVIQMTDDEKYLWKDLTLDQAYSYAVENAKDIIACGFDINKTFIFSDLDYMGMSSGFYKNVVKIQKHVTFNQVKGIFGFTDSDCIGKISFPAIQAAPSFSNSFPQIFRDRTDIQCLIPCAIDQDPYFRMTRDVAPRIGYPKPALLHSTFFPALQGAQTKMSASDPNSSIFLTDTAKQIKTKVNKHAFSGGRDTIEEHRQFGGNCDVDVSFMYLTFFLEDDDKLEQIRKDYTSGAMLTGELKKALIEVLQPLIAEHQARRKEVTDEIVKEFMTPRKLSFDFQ

B1: tryptophanyl-tRNA synthetase (WARS), endogenous (enzyme, UniProt P23381 1-471)
chain: T1 sequence

Tests used:
[1] = target: T1, tryptophanyl-tRNA synthetase (WARS), endogenous (human (endogenous in A375)); test: co-IP; A375 cells treated with IFN-γ for 48 h, cross-linked with 0.1% formaldehyde; lysis in 50 mM Tris-HCl pH 8, 150 mM NaCl, 0.5% Nonidet P-40; beads with cross-linked anti-WARS, anti-STAT1 or control antibody overnight at 4 °C, six washes; Western blots of WARS and STAT1
[2] = target: Signal transducer and activator of transcription 1 (STAT1), endogenous (human (endogenous in A375)) (UniProt P42224); test: as above

Molecule	binding [1]	binding [2]
Signal transducer and activator of transcription 1 (STAT1), endogenous (from UniProt P42224 1-750)	binds	–
B1	–	binds
